In article PMC9319246 one finds binding data, which are given here for seven molecules.

The chains behind the UniProt entries cited, without tags or fusion partners.
UniProt O15446: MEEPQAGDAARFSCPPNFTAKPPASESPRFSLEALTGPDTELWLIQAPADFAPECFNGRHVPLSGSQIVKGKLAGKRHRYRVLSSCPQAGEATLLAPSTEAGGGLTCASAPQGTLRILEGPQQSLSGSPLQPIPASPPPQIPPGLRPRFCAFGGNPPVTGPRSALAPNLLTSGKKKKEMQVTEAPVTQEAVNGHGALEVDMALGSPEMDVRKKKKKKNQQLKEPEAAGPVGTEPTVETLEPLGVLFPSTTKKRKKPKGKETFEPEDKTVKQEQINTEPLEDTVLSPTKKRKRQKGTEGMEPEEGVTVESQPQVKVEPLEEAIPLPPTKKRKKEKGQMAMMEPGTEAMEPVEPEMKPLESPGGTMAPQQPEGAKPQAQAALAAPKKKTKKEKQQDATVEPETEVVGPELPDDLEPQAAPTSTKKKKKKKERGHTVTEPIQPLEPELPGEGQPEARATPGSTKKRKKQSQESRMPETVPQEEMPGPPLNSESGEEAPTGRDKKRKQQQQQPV

Results are given in words; binding and its absence hold for the method and conditions named. Binding seen in cells or lysates may run through a third protein. These calls come from enrichment with a bait or labelling near it, and not all partners need be listed. Tags and fused reporters may be left off the sequences shown.

Experiment [1] addresses T1, endogenously FLAG-tagged TTC30A (human (endogenous in HEK293T)) (UniProt Q86WT1).
T1 sequence: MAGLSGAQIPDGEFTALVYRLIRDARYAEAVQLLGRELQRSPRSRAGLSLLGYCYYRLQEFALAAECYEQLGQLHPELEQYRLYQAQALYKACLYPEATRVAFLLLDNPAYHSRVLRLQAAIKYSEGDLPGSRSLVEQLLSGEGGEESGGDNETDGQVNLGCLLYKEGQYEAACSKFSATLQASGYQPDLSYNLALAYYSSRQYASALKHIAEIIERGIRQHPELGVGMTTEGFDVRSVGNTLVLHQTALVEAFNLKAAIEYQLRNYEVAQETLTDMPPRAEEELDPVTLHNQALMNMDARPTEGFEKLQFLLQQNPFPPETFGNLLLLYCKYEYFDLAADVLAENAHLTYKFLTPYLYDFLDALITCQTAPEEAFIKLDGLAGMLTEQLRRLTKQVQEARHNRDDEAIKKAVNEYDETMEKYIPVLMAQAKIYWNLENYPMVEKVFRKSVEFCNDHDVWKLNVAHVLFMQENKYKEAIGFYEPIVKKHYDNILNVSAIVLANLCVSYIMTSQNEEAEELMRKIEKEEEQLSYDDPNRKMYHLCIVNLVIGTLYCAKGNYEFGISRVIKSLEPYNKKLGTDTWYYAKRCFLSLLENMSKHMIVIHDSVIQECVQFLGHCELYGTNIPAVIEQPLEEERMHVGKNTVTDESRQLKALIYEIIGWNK
Put plainly: affinity purification with mass spectrometry; anti-Flag-M2-agarose beads on lysates of endogenously FLAG-tagged TTC30A or TTC30B HEK293T cells, serum starved for 16 h; elution with Flag-peptide; label-free LC-MS/MS; six biological replicates against an untagged Cas9 empty-vector control clone.

A further experiment has as its target T2, Strep/FLAG-tagged IFT88 (UniProt Q13099).
T2 sequence: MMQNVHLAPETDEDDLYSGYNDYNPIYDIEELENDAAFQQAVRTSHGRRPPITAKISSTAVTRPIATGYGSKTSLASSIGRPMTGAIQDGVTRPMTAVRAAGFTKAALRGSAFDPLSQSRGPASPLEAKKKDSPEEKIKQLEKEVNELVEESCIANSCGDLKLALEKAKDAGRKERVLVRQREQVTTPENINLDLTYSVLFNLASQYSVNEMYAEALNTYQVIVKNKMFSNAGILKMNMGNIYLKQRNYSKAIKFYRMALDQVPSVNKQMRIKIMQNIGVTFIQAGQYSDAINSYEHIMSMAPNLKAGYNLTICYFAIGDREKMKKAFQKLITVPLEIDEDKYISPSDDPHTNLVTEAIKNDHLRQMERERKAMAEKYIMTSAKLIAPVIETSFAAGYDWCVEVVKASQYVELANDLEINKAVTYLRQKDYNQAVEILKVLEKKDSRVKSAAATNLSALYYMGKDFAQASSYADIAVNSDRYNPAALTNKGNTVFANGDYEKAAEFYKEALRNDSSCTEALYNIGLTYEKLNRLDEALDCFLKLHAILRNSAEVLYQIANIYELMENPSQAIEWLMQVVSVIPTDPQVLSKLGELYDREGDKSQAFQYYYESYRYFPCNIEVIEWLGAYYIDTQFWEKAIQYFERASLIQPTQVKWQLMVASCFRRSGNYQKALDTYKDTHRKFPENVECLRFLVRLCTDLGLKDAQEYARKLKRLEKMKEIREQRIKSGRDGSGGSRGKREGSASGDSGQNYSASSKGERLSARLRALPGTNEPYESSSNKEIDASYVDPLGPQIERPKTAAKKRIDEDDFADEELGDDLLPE
Kind of experiment: affinity purification with mass spectrometry; Strep-Tactin Superflow on lysates of HEK293T Cas9 control, TTC30B KO and TTC30A/B KO cells transfected with Strep/FLAG-tagged LCA5 or IFT88 (Strep/FLAG-RAF1 as control); Strep elution buffer; label-free LC-MS/MS; four biological replicates.

Another experiment addresses T3, Strep/FLAG-tagged LCA5 (UniProt Q86VQ0).
T3 sequence: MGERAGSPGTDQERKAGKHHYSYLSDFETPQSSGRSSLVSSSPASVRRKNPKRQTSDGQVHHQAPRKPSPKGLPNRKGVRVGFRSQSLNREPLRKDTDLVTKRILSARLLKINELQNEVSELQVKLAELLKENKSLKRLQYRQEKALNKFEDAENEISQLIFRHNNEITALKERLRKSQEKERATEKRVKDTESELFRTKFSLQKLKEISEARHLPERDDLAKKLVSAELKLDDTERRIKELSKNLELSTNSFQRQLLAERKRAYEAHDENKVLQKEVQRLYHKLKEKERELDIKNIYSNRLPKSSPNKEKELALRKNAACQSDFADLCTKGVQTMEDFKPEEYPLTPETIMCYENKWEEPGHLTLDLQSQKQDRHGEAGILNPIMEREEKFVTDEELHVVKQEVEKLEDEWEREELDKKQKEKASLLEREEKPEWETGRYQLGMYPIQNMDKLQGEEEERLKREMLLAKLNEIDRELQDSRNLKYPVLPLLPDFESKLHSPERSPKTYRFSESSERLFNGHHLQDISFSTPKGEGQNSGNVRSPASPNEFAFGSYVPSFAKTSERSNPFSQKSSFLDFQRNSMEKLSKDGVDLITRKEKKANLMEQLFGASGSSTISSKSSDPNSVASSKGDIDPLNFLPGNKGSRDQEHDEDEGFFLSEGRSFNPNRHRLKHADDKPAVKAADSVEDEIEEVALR
Described as above.

For the molecule CD3EAP (from UniProt O15446 1-510), in experiment [1], the binding entry is listed as “binds”.

B1: RPP25L (protein, UniProt Q8N5L8 1-163)
chain: MEHYRKAGSVELPAPSPMPQLPPDTLEMRVRDGSKIRNLLGLALGRLEGGSARHVVFSGSGRAAGKAVSCAEIVKRRVPGLHQLTKLRFLQTEDSWVPASPDTGLDPLTVRRHVPAVWVLLSRDPLDPNECGYQPPGAPPGLGSMPSSSCGPRSRRRARDTRS
As for B1, the binding result in experiment [1] was “binds”.

B2: IFT80 (protein, UniProt Q9P2H3 1-777)
chain: MRLKISLLKEPKHQELVSCVGWTTAEELYSCSDDHQIVKWNLLTSETTQIVKLPDDIYPIDFHWFPKSLGVKKQTQAESFVLTSSDGKFHLISKLGRVEKSVEAHCGAVLAGRWNYEGTALVTVGEDGQIKIWSKTGMLRSTLAQQGTPVYSVAWGPDSEKVLYTAGKQLIIKPLQPNAKVLQWKAHDGIILKVDWNSVNDLILSAGEDCKYKVWDSYGRPLYNSQPHEHPITSVAWAPDGELFAVGSFHTLRLCDKTGWSYALEKPNTGSIFNIAWSIDGTQIAGACGNGHVVFAHVVEQHWEWKNFQVTLTKRRAMQVRNVLNDAVDLLEFRDRVIKASLNYAHLVVSTSLQCYVFSTKNWNTPIIFDLKEGTVSLILQAERHFLLVDGSSIYLYSYEGRFISSPKFPGMRTDILNAQTVSLSNDTIAIRDKADEKIIFLFEASTGKPLGDGKFLSHKNEILEIALDQKGLTNDRKIAFIDKNRDLCITSVKRFGKEEQIIKLGTMVHTLAWNDTCNILCGLQDTRFIVWYYPNTVYVDRDILPKTLYERDASEFSKNPHIVSFVGNQVTIRRADGSLVHISITPYPAILHEYVSSSKWEDAVRLCRFVKEQTMWACLAAMAVANRDMTTAEIAYAAIGEIDKVQYINSIKNLPSKESKMAHILLFSGNIQEAEIVLLQAGLVYQAIQININLYNWERALELAVKYKTHVDTVLAYRQKFLETFGKQETNKRYLHYAEGLQIDWEKIKAKIEMEITKEREQSSSSQSSKSIGLKP
With B2, the binding entry in the experiment with Strep/FLAG-tagged IFT88 and with Strep/FLAG-tagged LCA5 was “binds” each time.

B3: CLUAP1 (protein, UniProt Q96AJ1 1-413)
chain: MSFRDLRNFTEMMRALGYPRHISMENFRTPNFGLVSEVLLWLVKRYEPQTDIPPDVDTEQDRVFFIKAIAQFMATKAHIKLNTKKLYQADGYAVKELLKITSVLYNAMKTKGMEGSEIVEEDVNKFKFDLGSKIADLKAARQLASEITSKGASLYDLLGMEVELREMRTEAIARPLEINETEKVMRIAIKEILTQVQKTKDLLNNVASDEANLEAKIEKRKLELERNRKRLETLQSVRPCFMDEYEKTEEELQKQYDTYLEKFQNLTYLEQQLEDHHRMEQERFEEAKNTLCLIQNKLKEEEKRLLKSGSNDDSDIDIQEDDESDSELEERRLPKPQTAMEMLMQGRPGKRIVGTMQGGDSDDNEDSEESEIDMEDDDDEDDDLEDESISLSPTKPNRRVRKSEPLDESDNDF
With B3, the binding entry in the experiment with Strep/FLAG-tagged IFT88 and in the experiment with Strep/FLAG-tagged LCA5 was “binds” in each case.

B4: TRAF3IP1 (protein, UniProt Q8TDR0 1-691)
chain: MNAAVVRRTQEALGKVIRRPPLTEKLLSKPPFRYLHDIITEVIRMTGFMKGLYTDAEMKSDNVKDKDAKISFLQKAIDVVVMVSGEPLLAKPARIVAGHEPERTNELLQIIGKCCLNKLSSDDAVRRVLAGEKGEVKGRASLTSRSQELDNKNVREEESRVHKNTEDRGDAEIKERSTSRDRKQKEELKEDRKPREKDKDKEKAKENGGNRHREGERERAKARARPDNERQKDRGNRERDRDSERKKETERKSEGGKEKERLRDRDRERDRDKGKDRDRRRVKNGEHSWDLDREKNREHDKPEKKSASSGEMSKKLSDGTFKDSKAETETEISTRASKSLTTKTSKRRSKNSVEGRKEDNISAKSLDSIVSGINNEPNQETTTSEIGTKEANINSTSISDDNSASLRCENIQPNPTEKQKGDSTSDAEGDAGPAGQDKSEVPETPEIPNELSSNIRRIPRPGSARPAPPRVKRQDSMEALQMDRSGSGKTVSNVITESHNSDNEEDDQFVVEAAPQLSEMSEIEMVTAVELEEEEKHGGLVKKILETKKDYEKLQQSPKPGEKERSLFESAWKKEKDIVSKEIEKLRTSIQTLCKSALPLGKIMDYIQEDVDAMQNELQMWHSENRQHAEALQQEQRITDCAVEPLKAELAELEQLIKDQQDKICAVKANILKNEEKIQKMVYSINLTSRR
On to B4, for which the binding entry with Strep/FLAG-tagged IFT88 and with Strep/FLAG-tagged LCA5 was “binds” each time.

B5: CWC27 (protein, UniProt Q6UX04 1-472)
chain: MSNIYIQEPPTNGKVLLKTTAGDIDIELWSKEAPKACRNFIQLCLEAYYDNTIFHRVVPGFIVQGGDPTGTGSGGESIYGAPFKDEFHSRLRFNRRGLVAMANAGSHDNGSQFFFTLGRADELNNKHTIFGKVTGDTVYNMLRLSEVDIDDDERPHNPHKIKSCEVLFNPFDDIIPREIKRLKKEKPEEEVKKLKPKGTKNFSLLSFGEEAEEEEEEVNRVSQSMKGKSKSSHDLLKDDPHLSSVPVVESEKGDAPDLVDDGEDESAEHDEYIDGDEKNLMRERIAKKLKKDTSANVKSAGEGEVEKKSVSRSEELRKEARQLKRELLAAKQKKVENAAKQAEKRSEEEEAPPDGAVAEYRREKQKYEALRKQQSKKGTSREDQTLALLNQFKSKLTQAIAETPENDIPETEVEDDEGWMSHVLQFEDKSRKVKDASMQDSDTFEIYDPRNPVNKRRREESKKLMREKKERR
As to B5, the binding result in experiment [1] is given as “binds”.

B6: CARS (protein, UniProt P49589 1-748)
chain: MADSSGQQGKGRRVQPQWSPPAGTQPCRLHLYNSLTRNKEVFIPQDGKKVTWYCCGPTVYDASHMGHARSYISFDILRRVLKDYFKFDVFYCMNITDIDDKIIKRARQNHLFEQYREKRPEAAQLLEDVQAALKPFSVKLNETTDPDKKQMLERIQHAVQLATEPLEKAVQSRLTGEEVNSCVEVLLEEAKDLLSDWLDSTLGCDVTDNSIFSKLPKFWEGDFHRDMEALNVLPPDVLTRVSEYVPEIVNFVQKIVDNGYGYVSNGSVYFDTAKFASSEKHSYGKLVPEAVGDQKALQEGEGDLSISADRLSEKRSPNDFALWKASKPGEPSWPCPWGKGRPGWHIECSAMAGTLLGASMDIHGGGFDLRFPHHDNELAQSEAYFENDCWVRYFLHTGHLTIAGCKMSKSLKNFITIKDALKKHSARQLRLAFLMHSWKDTLDYSSNTMESALQYEKFLNEFFLNVKDILRAPVDITGQFEKWGEEEAELNKNFYDKKTAIHKALCDNVDTRTVMEEMRALVSQCNLYMAARKAVRKRPNQALLENIALYLTHMLKIFGAVEEDSSLGFPVGGPGTSLSLEATVMPYLQVLSEFREGVRKIAREQKVPEILQLSDALRDNILPELGVRFEDHEGLPTVVKLVDRNTLLKEREEKRRVEEEKRKKKEEAARRKQEQEAAKLAKMKIPPSEMFLSETDKYSKFDENGLPTHDMEGKELSKGQAKKLKKLFEAQEKLYKEYLQMAQNGSFQ
For B6, the binding result in experiment [1] is “binds”.
